We go through two molecules from US20050058645A1.

Amino acid sequences for entries named in this document (tags omitted). Residues count along the entry.
UniProt P35225, residues 35-146: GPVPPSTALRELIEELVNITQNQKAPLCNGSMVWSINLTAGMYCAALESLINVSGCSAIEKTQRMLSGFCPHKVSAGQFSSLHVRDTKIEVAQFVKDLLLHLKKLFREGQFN

Results are given in words; binding and its absence hold for the method and conditions named. Some entries that bind do so weakly or less than the wild type. Sequences can lack the tags named with a protein.

For the experiment, the target named is human IL-13 (human) (UniProt P35225). Nature of the experiment: Biosensor, immobilized human IL-13, dose-response.

B1: chimeric human IL-13Rα1-Fc (Fc fusion, not shown: a dimerising Fc or GST)
chain: GGGGAAPTETQPPVTNLSVSVENLCTVIWTWNPPEGASSNCSLWYFSHFGDKQDKKIAPETRRSIEVPLNERICLQVGSQCSTNESEKPSILVEKCISPPEGDPESAVTELQCIWHNLSYMKCSWLPGRNTSPDTNYTLYYWHRSLEKIHQCENIFREGQYFGCSFDLTKVKDSSFEQHSVQIMVKDNAGKIKPSFNIVPLTSRVKPDPPHIKNLSFHNDDLYVQWENPQNFISRCLFYEVEVNNSQTETHNVFYVQEAKCENPEFERNVENTSCFMVPGVLPDTLNTVRIRVKTNKLCYEDDKLWSNWSQEMSIGKKRNST
In the case of B1, the binding entry is “binds”.

B2: chimeric mouse IL-13Rα1-Fc (Fc fusion, UniProt O09030 26-340, looked up, not shown: a dimerising Fc or GST)
chain: ATEVQPPVTNLSVSVENLCTIIWTWSPPEGASPNCTLRYFSHFDDQQDKKIAPETHRKEELPLDEKICLQVGSQCSANESEKPSPLVKKCISPPEGDPESAVTELKCIWHNLSYMKCSWLPGRNTSPDTHYTLYYWYSSLEKSRQCENIYREGQHIACSFKLTKVEPSFEHQNVQIMVKDNAGKIRPSCKIVSLTSYVKPDPPHIKHLLLKNGALLVQWKNPQNFRSRCLTYEVEVNNTQTDRHNILEVEEDKCQNSESDRNMEGTSCFQLPGVLADAVYTVRVRVKTNKLCFDDNKLWSDWSEAQSIGKEQNST
As to B2, the binding result is recorded as “binds”.
